This is one part of the list. This data set is noisy: repeats of one test often differ as much as different tests do.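 HEK293T cells were given each compound shortly before transfection with a reporter in which red mCherry is followed by the SARS-CoV-2 frameshift element and then GFP in the −1 frame, so GFP appears only after frameshifting.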
tested on: HEK293T; assay: percent viability (nuclei count) relative to control; higher = more viable cells; conditions: 10 µM; 24 h

Structure (SMILES)	percent viability [%]
CCC(=O)OCC(=O)[C@@]1(OC(=O)CC)[C@H](C)C[C@H]2[C@H]3[C@H]([C@@H](O)C[C@@]21C)[C@@]1(C)C=CC(=O)C=C1C[C@H]3Cl [Alclometasone]	318
CC[C@H]1OC(=O)[C@H](C)C(=O)[C@H](C)[C@@H](O[C@@H]2O[C@H](C)C[C@H](N(C)C)[C@H]2O)[C@](C)(OC)C[C@@H](C)C(=O)[C@H](C)[C@H]2N(CCCCn3cnc(-c4cccnc4)c3)C(=O)O[C@]12C [telithromycin]	226
CC1CCc2cc(F)cc3c(=O)c(C(=O)O)cn1c23 (centres undefined) [flumequine]	132
CC1CC(=O)NN=C1c1ccc(NN=C(C#N)C#N)cc1 (centres undefined) [simendan]	52

— the supplement of paper PMC8256030
